Experimental data reported in US6620585B1, “Use of ectoenzymes and secreted enzymes to monitor cellular proliferation” (priority 2000, dated 2003).
For at least one compound, name, drawing or mass did not settle the structure.

Experiments:
[1] = system: bacterial strain engineered for expression of an antisense complementary to a proliferation-required 50S ribosomal protein (rplL and rplJ); assay type: cell-based, E. coli; details: significant decrease in IC50 in the presence of inducer (IPTG)
Procedure: The effectiveness of the above assays was validated using proliferation-required genes from E. coli which were identified using procedures similar to those described above. Antibiotics of various chemical classes and modes of action were purchased from Sigma Chemicals (St. Louis, Mo.). Stock solutions were prepared by dissolving each antibiotic in an appropriate aqueous solution based on information provided by the manufacturer. The final working solution of each antibiotic contained no more than 0.2% (w/v) of any organic solvent. To determine their potency against a bacterial strain engineered for expression of an antisense complementary to a proliferation-required 50S ribosomal protein, each antibiotic was serially diluted two or three fold in growth medium supplemented with the appropriate antibiotic for maintenance of the anti-sense construct. At least ten dilutions were prepared for each antibiotic. 25 μL aliquots of each dilution were transferred to discrete wells of a 384-well microplate (the assay plate) using a multi-channel pipette. Quadruplicate wells were used for each dilution of an antibiotic under each treatment condition (plus and minus inducer). Each assay plate contained twenty wells for cell growth controls (growth media replacing antibiotic), ten wells for each treatment (plus and minus inducer, in this example IPTG). Assay plates were usually divided into the two treatments: half the plate containing induced cells and an appropriate concentrations of inducer (in this example IPTG) to maintain the state of induction, the other half containing non-induced cells in the absence of IPTG.
Cells for the assay were prepared as follows. Bacterial cells containing a construct, from which expression of antisense nucleic acid complementary to rplL and rplJ, which encode proliferation-required 50S ribosomal subunit proteins, is inducible in the presence of IPTG, were grown into exponential growth (OD600 0.2 to 0.3) and then diluted 1:100 into fresh media containing either 400 μM or 0 μM inducer (IPTG). These cultures were incubated at 37° C. for 2.5 hr. […] The plate was then loaded into a plate reader, incubated at constant temperature, and cell growth was monitored in each well by the measurement of light scattering at 595 nm. Growth was monitored every 5 minutes until the cell culture attained a stationary growth phase. For each concentration of antibiotic, a percentage inhibition of growth was calculated at the time point corresponding to mid-exponential growth for the associated control wells (no antibiotic, plus or minus IPTG). For each antibiotic and condition (plus or minus IPTG), a plot of percent inhibition versus log of antibiotic concentration was generated and the IC50 determined.

[2] = system: E. coli clones expressing antisense nucleic acids to ribosomal proteins L7/L12, L10 and L23 or to non-protein-synthesis genes; experiment: Effect of antisense expression on cell sensitivity to tetracycline (OD600 growth, 96-well); assay type: cell-based

C[C@H]1c2cccc(O)c2C(=O)C2=C(O)[C@]3(O)C(=O)C(C(N)=O)=C(O)[C@@H](N(C)C)[C@@H]3[C@@H](O)[C@@H]21 [Doxycycline]
Sensitivity Increased ? [1]: Yes

CN(C)c1ccc(O)c2c1C[C@H]1C[C@H]3[C@H](N(C)C)C(O)=C(C(N)=O)C(=O)[C@@]3(O)C(O)=C1C2=O [Minocycline]
Sensitivity Increased ? [1]: Yes

CC1COc2c(N3CCN(C)CC3)c(F)cc3c(=O)c(C(=O)O)cn1c23 (stereo not drawn) [Ofloxacin]
Sensitivity Increased ? [1]: No

CN(C)[C@@H]1C(O)=C(C(N)=O)C(=O)[C@@]2(O)C(O)=C3C(=O)c4c(O)cccc4[C@@](C)(O)[C@H]3C[C@@H]12 [Tetracycline]
Sensitivity Increased ? [1]: Yes | tetracycline sensitivity (ratio of tetracycline IC50s with and without IPTG) ([2]; cells expressing antisense to genes not known to be involved in protein synthesis (atpB/E, visC, elaD, yohH)): did not show the same increased sensitivity | tetracycline sensitivity (ratio of tetracycline IC50s with and without IPTG) ([2]; cells with reduced levels of L7/L12 (rplL and rplJ gene products) or L23 (rplW gene product), IPTG giving 50% growth inhibition): increased sensitivity
